{"sequences": {"note": "The chains behind the UniProt entries cited, without tags or fusion partners.", "UniProt Q3U133": "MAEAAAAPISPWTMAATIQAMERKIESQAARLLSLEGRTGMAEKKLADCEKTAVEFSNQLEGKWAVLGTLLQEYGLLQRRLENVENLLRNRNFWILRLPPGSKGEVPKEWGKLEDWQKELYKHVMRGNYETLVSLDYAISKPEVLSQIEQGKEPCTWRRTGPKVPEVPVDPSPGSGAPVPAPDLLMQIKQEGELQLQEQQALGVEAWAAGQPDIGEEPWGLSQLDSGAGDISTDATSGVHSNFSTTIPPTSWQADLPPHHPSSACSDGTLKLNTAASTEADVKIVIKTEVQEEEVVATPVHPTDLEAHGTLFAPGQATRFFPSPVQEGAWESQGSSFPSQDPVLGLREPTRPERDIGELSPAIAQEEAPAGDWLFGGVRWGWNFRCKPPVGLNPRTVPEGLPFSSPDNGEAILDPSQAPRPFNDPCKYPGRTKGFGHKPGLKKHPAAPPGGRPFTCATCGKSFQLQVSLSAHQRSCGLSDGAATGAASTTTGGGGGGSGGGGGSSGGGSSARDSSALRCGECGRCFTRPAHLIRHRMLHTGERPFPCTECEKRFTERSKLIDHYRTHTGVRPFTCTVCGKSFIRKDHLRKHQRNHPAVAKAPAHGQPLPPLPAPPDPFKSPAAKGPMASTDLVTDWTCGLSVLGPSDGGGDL", "UniProt Q6NUN9": "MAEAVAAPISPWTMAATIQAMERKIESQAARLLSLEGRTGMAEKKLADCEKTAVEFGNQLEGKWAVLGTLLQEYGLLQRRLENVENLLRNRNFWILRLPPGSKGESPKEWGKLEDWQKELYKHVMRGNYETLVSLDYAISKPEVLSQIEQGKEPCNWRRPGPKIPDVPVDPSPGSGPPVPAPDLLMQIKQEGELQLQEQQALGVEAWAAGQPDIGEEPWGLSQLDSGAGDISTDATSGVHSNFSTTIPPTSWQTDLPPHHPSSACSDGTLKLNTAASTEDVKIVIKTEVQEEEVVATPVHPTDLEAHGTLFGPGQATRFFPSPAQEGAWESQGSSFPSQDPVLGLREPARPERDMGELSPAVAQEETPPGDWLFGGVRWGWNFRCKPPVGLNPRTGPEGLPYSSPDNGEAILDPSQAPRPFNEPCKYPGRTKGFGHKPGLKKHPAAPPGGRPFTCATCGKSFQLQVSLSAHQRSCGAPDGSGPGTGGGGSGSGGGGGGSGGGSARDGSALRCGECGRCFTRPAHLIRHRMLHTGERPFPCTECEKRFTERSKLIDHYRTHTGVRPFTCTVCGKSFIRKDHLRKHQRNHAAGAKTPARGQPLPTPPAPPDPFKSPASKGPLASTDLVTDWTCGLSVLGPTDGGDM", "UniProt Q12778": "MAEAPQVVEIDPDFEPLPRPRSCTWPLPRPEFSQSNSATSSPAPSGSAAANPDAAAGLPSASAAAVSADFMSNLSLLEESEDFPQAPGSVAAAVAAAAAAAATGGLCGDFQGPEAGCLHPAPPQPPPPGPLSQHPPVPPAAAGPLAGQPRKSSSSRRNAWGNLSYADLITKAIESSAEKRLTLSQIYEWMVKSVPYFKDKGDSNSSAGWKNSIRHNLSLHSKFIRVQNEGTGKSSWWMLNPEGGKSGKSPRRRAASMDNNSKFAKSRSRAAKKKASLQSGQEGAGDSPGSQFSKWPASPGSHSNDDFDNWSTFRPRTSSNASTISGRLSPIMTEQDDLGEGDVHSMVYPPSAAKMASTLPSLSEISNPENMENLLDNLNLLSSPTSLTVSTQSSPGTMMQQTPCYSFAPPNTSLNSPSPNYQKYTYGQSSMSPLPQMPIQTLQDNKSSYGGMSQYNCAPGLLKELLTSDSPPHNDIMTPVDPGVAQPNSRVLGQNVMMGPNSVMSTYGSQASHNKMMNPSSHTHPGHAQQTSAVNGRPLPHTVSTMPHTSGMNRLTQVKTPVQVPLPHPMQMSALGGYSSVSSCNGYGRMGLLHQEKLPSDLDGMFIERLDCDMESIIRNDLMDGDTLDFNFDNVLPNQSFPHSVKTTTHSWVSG", "UniProt Q9R1E0": "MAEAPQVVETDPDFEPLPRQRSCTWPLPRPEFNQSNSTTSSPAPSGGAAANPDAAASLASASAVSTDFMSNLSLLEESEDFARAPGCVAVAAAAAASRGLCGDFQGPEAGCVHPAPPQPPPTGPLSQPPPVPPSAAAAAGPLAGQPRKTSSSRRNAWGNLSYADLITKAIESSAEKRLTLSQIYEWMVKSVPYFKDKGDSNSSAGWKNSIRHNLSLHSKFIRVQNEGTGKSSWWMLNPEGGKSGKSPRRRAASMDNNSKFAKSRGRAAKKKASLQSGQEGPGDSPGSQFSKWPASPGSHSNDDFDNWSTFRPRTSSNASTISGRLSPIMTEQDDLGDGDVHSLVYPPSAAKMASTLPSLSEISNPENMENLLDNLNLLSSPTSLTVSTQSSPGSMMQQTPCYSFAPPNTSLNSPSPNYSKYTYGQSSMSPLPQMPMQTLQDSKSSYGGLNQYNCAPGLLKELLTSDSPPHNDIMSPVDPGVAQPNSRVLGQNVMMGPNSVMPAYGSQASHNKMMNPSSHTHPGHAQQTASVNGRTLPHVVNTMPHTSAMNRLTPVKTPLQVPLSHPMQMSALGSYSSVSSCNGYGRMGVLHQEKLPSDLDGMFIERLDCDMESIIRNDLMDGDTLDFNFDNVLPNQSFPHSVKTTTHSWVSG"}, "source": "paper PMC7217926", "key": {"[1]": {"biological_target": "ZNF746 (PARIS), endogenous in C2C12 myoblasts (mouse (endogenous in C2C12)) (UniProt Q3U133)", "assay": "co-IP; C2C12 cells, untreated or treated with TNF-α (20 ng/ml, 24 h); co-immunoprecipitation of FoxO1 with anti-PARIS antibody; lysis in 10 mM Tris-HCl pH 7.4, 150 mM NaCl, 1 mM EDTA, 1% Triton X-100; immunoblot"}, "[2]": {"biological_target": "ZNF746 (PARIS), Flag-tagged, overexpressed (UniProt Q6NUN9)", "assay": "co-IP; 293T cells expressing PARIS-Flag and FoxO1; immunoprecipitation with FoxO1 or PARIS antibodies, magnetic beads, 4 °C overnight; lysis in 10 mM Tris-HCl pH 7.4, 150 mM NaCl, 1 mM EDTA, 1% Triton X-100; immunoblot"}, "[3]": {"biological_target": "FoxO1, overexpressed from pcDNA3-FoxO1 (UniProt Q12778)", "assay": "co-IP; 293T cells expressing PARIS-Flag and FoxO1; immunoprecipitation with FoxO1 or PARIS antibodies, magnetic beads, 4 °C overnight; lysis in 10 mM Tris-HCl pH 7.4, 150 mM NaCl, 1 mM EDTA, 1% Triton X-100; immunoblot"}}, "note": "These are yes or no findings as the source states them, for the method shown. Binding seen in cells or lysates may run through a third protein. Some entries that bind do so weakly or less than the wild type.", "data": [{"substance": "FoxO1, endogenous in C2C12 myoblasts (from UniProt Q9R1E0 1-652)", "values": [{"measurement": "binding", "setting": "[1]", "value": "binds"}]}, {"substance": "FoxO1, overexpressed from pcDNA3-FoxO1 (from UniProt Q12778 1-655)", "values": [{"measurement": "binding", "setting": "[2]", "value": "binds"}]}, {"substance": "ZNF746 (PARIS), Flag-tagged, overexpressed (from UniProt Q6NUN9 1-644)", "values": [{"measurement": "binding", "setting": "[3]", "value": "binds"}]}]}
